Measured values: the supplement of paper PMC8728848
The list shows a part of the results.

How the values were obtained:
Assay in all cases: glycan array binding signal (z-score within array); higher = stronger binding
Details in all cases: glycan notation: IUPAC condensed, linker removed
[1] = biological target: GlcNAc(b1-3)Gal(b1-4)GlcNAc(b1-3)Gal(b1-4)GlcNAc(b1-3)GalNAc
How it was run: (§1)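 The Consortium for Functional Glycomics database supplied 3228 glycan arrays, of which those lacking an available protein sequence were dropped. The binding signal, a within-array Z-score, was averaged across arrays of the same protein sequence and across linkers. Negative scores can be read as non-binding.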

[2] = biological target: GlcNAc(b1-3)Gal(b1-4)GlcNAc(b1-3)GalNAc
How it was run: as §1

[3] = biological target: GlcNAc(b1-3)Gal(b1-4)GlcNAc(b1-3)[GlcNAc(b1-3)Gal(b1-4)GlcNAc(b1-3)]GalNAc
How it was run: as §1

[4] = biological target: GlcNAc(b1-3)Gal(b1-4)GlcNAc(b1-6)[Gal(b1-3)]GalNAc
How it was run: as §1

[5] = biological target: GlcNAc(b1-3)Gal(b1-4)GlcNAc(b1-6)[GlcNAc(b1-3)Gal(b1-3)]GalNAc
How it was run: as §1

[6] = biological target: GlcNAc(b1-3)Gal(b1-4)GlcNAc(b1-6)[GlcNAc(b1-3)]Gal(b1-4)GlcNAc
How it was run: as §1

GlcNAc(b1-3)GalNAc = biological target: GlcNAc(b1-3)GalNAc
How it was run: as §1

GlcNAc(b1-3)Man = biological target: GlcNAc(b1-3)Man
How it was run: as §1

[7] = biological target: GlcNAc(b1-3)[GlcNAc(b1-4)][GlcNAc(b1-6)]GlcNAc
How it was run: as §1

[8] = biological target: GlcNAc(b1-3)[GlcNAc(b1-6)]Gal(b1-4)GlcNAc
How it was run: as §1

[9] = biological target: GlcNAc(b1-3)[GlcNAc(b1-6)]GalNAc
How it was run: as §1

[10] = biological target: GlcNAc(b1-4)Gal(b1-4)GlcNAc
How it was run: as §1

GlcNAc(b1-4)GlcNAc = biological target: GlcNAc(b1-4)GlcNAc
How it was run: as §1

[11] = biological target: GlcNAc(b1-4)GlcNAc(b1-4)GlcNAc
How it was run: as §1

[12] = biological target: GlcNAc(b1-4)GlcNAc(b1-4)GlcNAc(b1-4)GlcNAc(b1-4)GlcNAc
How it was run: as §1

[13] = biological target: GlcNAc(b1-4)GlcNAc(b1-4)GlcNAc(b1-4)GlcNAc(b1-4)GlcNAc(b1-4)GlcNAc
How it was run: as §1

[14] = biological target: GlcNAc(b1-4)[GlcNAc(b1-6)]GalNAc
How it was run: as §1

[15] = biological target: GlcNAc(b1-6)Gal(b1-4)GlcNAc
How it was run: as §1

GlcNAc(b1-6)GalNAc = biological target: GlcNAc(b1-6)GalNAc
How it was run: as §1

[16] = biological target: GlcNAc6S(b1-3)Gal(b1-4)GlcNAc
How it was run: as §1

Kdn(a2-3)Gal(b1-3)GalNAc = biological target: Kdn(a2-3)Gal(b1-3)GalNAc
How it was run: as §1

Kdn(a2-3)Gal(b1-3)GlcNAc = biological target: Kdn(a2-3)Gal(b1-3)GlcNAc
How it was run: as §1

Kdn(a2-3)Gal(b1-4)Glc = biological target: Kdn(a2-3)Gal(b1-4)Glc
How it was run: as §1

Kdn(a2-3)Gal(b1-4)GlcNAc = biological target: Kdn(a2-3)Gal(b1-4)GlcNAc
How it was run: as §1

[17] = biological target: Kdn(a2-3)Gal(b1-4)[Fuc(a1-3)]GlcNAc
How it was run: as §1

Kdn(a2-6)Gal(b1-4)GlcNAc = biological target: Kdn(a2-6)Gal(b1-4)GlcNAc
How it was run: as §1

[18] = biological target: Man(a1-2)Man(a1-2)Man(a1-3)Man
How it was run: as §1

[19] = biological target: Man(a1-2)Man(a1-2)Man(a1-6)[Man(a1-3)]Man
How it was run: as §1

Man(a1-2)Man(a1-3)Man = biological target: Man(a1-2)Man(a1-3)Man
How it was run: as §1

[20] = biological target: Man(a1-2)Man(a1-3)[Man(a1-2)Man(a1-6)]Man
How it was run: as §1

[21] = biological target: Man(a1-2)Man(a1-3)[Man(a1-2)Man(a1-6)]Man(a1-6)[Man(a1-2)Man(a1-2)Man(a1-3)]Man
How it was run: as §1

[22] = biological target: Man(a1-2)Man(a1-3)[Man(a1-2)Man(a1-6)]Man(a1-6)[Man(a1-2)Man(a1-2)Man(a1-3)]Man(b1-4)GlcNAc(b1-4)GlcNAc
How it was run: as §1

[23] = biological target: Man(a1-2)Man(a1-3)[Man(a1-6)]Man(a1-6)[Man(a1-2)Man(a1-3)]Man(b1-4)GlcNAc(b1-4)GlcNAc
How it was run: as §1

[24] = biological target: Man(a1-2)Man(a1-6)[Man(a1-3)]Man(a1-6)[Man(a1-2)Man(a1-2)Man(a1-3)]Man
How it was run: as §1

[25] = biological target: Man(a1-2)Man(a1-6)[Man(a1-3)]Man(a1-6)[Man(a1-2)Man(a1-2)Man(a1-3)]Man(b1-4)GlcNAc(b1-4)GlcNAc
How it was run: as §1

Man(a1-3)[Man(a1-6)]Man = biological target: Man(a1-3)[Man(a1-6)]Man
How it was run: as §1

[26] = biological target: Man(a1-3)[Man(a1-6)]Man(a1-6)[Man(a1-2)Man(a1-3)]Man(b1-4)GlcNAc(b1-4)GlcNAc
How it was run: as §1

B1: PX15642A-pgi-501-20-501 (Parabacteroides gingivalis) (protein)
chain: CELDRDPEGKDFQQPYTSFVQTKQNRDGLYALLRNTENPRMHFYQELQSDMYCTTITDGNSLAPFVNWDLGILNDHGRADEDEVSGIAGYYFVYNRLNQQANAFVNNTEAALQNQVYKNSTEIANAKSFLAEGKVLQALAIWRLMDRFSFHESVTEVNSGAKDLGVILLKEYNPGYIGPRATKAQCYDYILSRLSEAIEVLPENRESVLYVSRDYAYALRARIYLALGEYGKAAADAKMVVDKYPLIGAADASEFENIYRSDANNPEIIFRGFASATLGSFTATTLNGAAPAGKDIKYNPSAVPFQWVVDLYENEDFRKSVYIAKVVKKDKGYLVNKFLEDKAYRDVQDKPNLKVGARYFSVAEVYLILVESALQTGDTPTAEKYLKALSKARGAEVSVVNMEALQAERTRELIGEGSRLRDMVRWSIPNNHDAFETQPGLEGFANTTPLKAQAPVGFYAYTWEFPQRDRQTNPQLIKNWPI
[1]
  glycan array binding signal (z-score): -0.403
[2]
  glycan array binding signal (z-score): -0.337
[3]
  glycan array binding signal (z-score): 0.014
[4]
  glycan array binding signal (z-score): -0.635
[5]
  glycan array binding signal (z-score): 0.406
[6]
  glycan array binding signal (z-score): -0.174
GlcNAc(b1-3)GalNAc
  glycan array binding signal (z-score): -0.32
GlcNAc(b1-3)Man
  glycan array binding signal (z-score): 0.647
[7]
  glycan array binding signal (z-score): -0.438
[8]
  glycan array binding signal (z-score): 0.524
[9]
  glycan array binding signal (z-score): -0.797
[10]
  glycan array binding signal (z-score): -0.501
GlcNAc(b1-4)GlcNAc
  glycan array binding signal (z-score): 0.019
[11]
  glycan array binding signal (z-score): -0.843
[12]
  glycan array binding signal (z-score): 0
[13]
  glycan array binding signal (z-score): -1.11
[14]
  glycan array binding signal (z-score): -0.12
[15]
  glycan array binding signal (z-score): -0.226
GlcNAc(b1-6)GalNAc
  glycan array binding signal (z-score): 0.285
[16]
  glycan array binding signal (z-score): -0.708
Kdn(a2-3)Gal(b1-3)GalNAc
  glycan array binding signal (z-score): -0.472
Kdn(a2-3)Gal(b1-3)GlcNAc
  glycan array binding signal (z-score): -0.011
Kdn(a2-3)Gal(b1-4)Glc
  glycan array binding signal (z-score): 0.612
Kdn(a2-3)Gal(b1-4)GlcNAc
  glycan array binding signal (z-score): -0.559
[17]
  glycan array binding signal (z-score): 0.042
Kdn(a2-6)Gal(b1-4)GlcNAc
  glycan array binding signal (z-score): -0.157
[18]
  glycan array binding signal (z-score): -1.25
[19]
  glycan array binding signal (z-score): -0.477
Man(a1-2)Man(a1-3)Man
  glycan array binding signal (z-score): -0.136
[20]
  glycan array binding signal (z-score): 0.122
[21]
  glycan array binding signal (z-score): -0.58
[22]
  glycan array binding signal (z-score): -1.02
[23]
  glycan array binding signal (z-score): -1.01
[24]
  glycan array binding signal (z-score): -0.321
[25]
  glycan array binding signal (z-score): -0.671
Man(a1-3)[Man(a1-6)]Man
  glycan array binding signal (z-score): 0.452
[26]
  glycan array binding signal (z-score): 0.018
